The experiment in a line: qHTS Assay for Modulators of Lamin A Splicing. To be noted: HeLa LMNA splicing GFP/RFP minigene ratio, 48 h. The essentials: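 S3 HeLa stable clones carrying a lamin A-EGFP splicing minigene plus DsRed2 were seeded at 600 cells/well in Opti-MEM with 2% FBS, pin-dosed and incubated 48 h at 37°C. Acumen cytometry (488 nm) gave the GFP/RFP total-intensity ratio.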
(qHTS replaces the single test concentration by a dilution series.)

[1] abbreviates: measured here: RFP viability control channel.
Where [2] appears, read: measured here: GFP splicing reporter channel.

Where “and” joins values, the source holds several entries; their conditions need not be identical. Equal values may be shown once. Some of the results follow. Shown are side measurements of this screen, not its main read-out; they come without a call. Compounds called inactive in the main read-out are mostly missing here. Potencies come from curve fits of mixed quality, noted in brackets.

Among the data in PubChem BioAssay AID1487 (National Center for Advancing Translational Sciences (NCATS), 2009) are AC50 values, retold here.

Usually AC50 stands for the concentration at which the activity in the assay is half-maximal.

As for `O=C(O)c1cc2ccc3ccccc3c2oc1=O`, under setting [1], the AC50 is 4.47 µM [rising, full curve, poor fit].

As for `Cc1ccc(CCNC(=O)c2ccc3c(c2)nc2n3CCOC2)cc1`, the AC50 under setting [2] is 3.16 µM [falling, single point] and the AC50 under setting [1] was 1.58 µM [falling, partial curve].

As for `Cc1sc(NC(=O)CCl)c(C(=O)c2ccccc2)c1C`, the AC50 under setting [1] was 11.2 µM [rising, partial curve].

For `CC(=O)N1CCCc2cc(S(=O)(=O)N3CCCC(C(=O)NCc4ccc(C)cc4)C3)ccc21` (configuration not stated), the AC50 runs as follows: under setting [2], 3.98 µM [falling, full curve, poor fit]; under setting [1], 5.62 µM [falling, single point].

For `C=CCc1ccccc1OC[C@H](O)CNC(C)C`, the AC50 under setting [2] was 0.355 µM [falling, partial curve].

For the molecule `COC(=O)c1cc(=O)n(Cc2ccc3c(c2)OCO3)c(=Nc2ccccc2)s1`, the AC50 under setting [1] is 20 µM [rising, partial curve].

For `Nc1ccc(C(=O)Oc2ccccc2)c(O)c1`, the AC50 under setting [2] was 22.4 µM [falling, partial curve, poor fit].

`O=c1c(-c2ccc(F)cc2)nc2cnc(Oc3cccc(Cl)c3)nc2n1C1CC1`: the AC50 under setting [1] is 5.01 µM [falling, partial curve].

`CN(C)S(=O)(=O)N1CCCC(C(=O)c2ccc(C(F)(F)F)cc2)C1` (configuration not stated): the AC50 runs as follows: under setting [2], 0.355 µM [falling, full curve, poor fit]; under setting [1], 3.98 µM [falling, full curve, poor fit].

On to `CC(=O)C1=C(c2ccccc2)N(C(C)=O)n2c(C)nnc2S1`, for which the concentration at half-maximal activity (AC50) by setting is: under setting [2], 4.47 µM [falling, partial curve, poor fit]; under setting [1], 2.24 µM [falling, partial curve, poor fit].

As for `CNNCc1ccc(C(=O)NC(C)C)cc1`, the AC50 under setting [1] is 3.16 µM [falling, single point].

Regarding `COc1ccc(C2CC3(CC(C)(C)NC(=O)N3)Oc3cc(O)ccc32)cc1` (configuration not stated), the AC50 under setting [1] was 10 µM [rising, partial curve].

Turning to `Cc1ccc(S(=O)(=O)C(CNC(=O)COc2ccccc2)c2ccco2)cc1` (configuration not stated), under setting [2], the AC50 was 0.0447 µM [rising, full curve, poor fit].

`O=C(CCCNS(=O)(=O)c1cccc2nsnc12)NCc1ccccc1`: under setting [1], the AC50 was 25.1 µM [rising, single point].

Turning to `C[C@H](CCC(=O)O)[C@H]1CC[C@@H]2[C@H]3[C@@H](C[C@@H](O)[C@]21C)[C@]1(C)CC[C@H](O)C[C@@H]1C[C@@H]3O`, the AC50 by setting is: under setting [2], 0.355 µM [falling, partial curve, poor fit]; under setting [1], 0.355 µM [falling, partial curve].

In the case of `CCCCONc1ncnc2nonc12`, the AC50 is, setting by setting: under setting [2], 7.94 µM [rising, partial curve, poor fit]; under setting [1], 11.2 µM [rising, partial curve].

Turning to `Cc1nc2ccccc2nc1OCc1ccc([N+](=O)[O-])cc1`, the AC50 under setting [1] was 11.2 µM [rising, partial curve, poor fit].

As for `COC(=O)N/N=C/c1cc(C)n(-c2ccccc2)c1C`, the AC50 under setting [1] was 0.01 µM [rising, full curve, poor fit].

For `Cc1cc(C)n(-c2nc3cc(Cl)ccc3nc2N2CCN(c3ccccc3F)CC2)n1`, the AC50 under setting [2] was 0.0398 µM [falling, full curve, poor fit].

Regarding `COc1ccc(/C=C2\SC(=O)N(CCNC(=O)Cc3coc4cc(C)ccc34)C2=O)cc1OC`, the AC50 under setting [2] is 22.4 µM [rising, single point].

With `Cc1ccc(NC(=O)CSc2nccn2Cc2ccccc2)cc1C`, the AC50 under setting [2] is 14.1 µM [rising, partial curve, poor fit] and the AC50 under setting [1] is 17.8 µM [rising, partial curve, poor fit].

Take `COc1cnc(-c2ccccn2)nc1Oc1ccc(Cl)c2ccccc12`: the AC50 is, setting by setting: under setting [2], 12.6 µM [falling, single point]; under setting [1], 20 µM [falling, single point].

For `COc1ccc(CN(C2CCCC2)S(=O)(=O)c2ccc(-n3cnnn3)c(OC)c2)cc1OC`, the AC50 under setting [1] is 31.6 µM [rising, single point].

As to `CCOc1cc(-c2ccc(OC(=O)c3ccccc3)c(OC)c2)cc(=O)c2c(C)oc(C)c12`, the AC50 runs as follows: under setting [2], 35.5 µM [falling, single point]; under setting [1], 22.4 µM [falling, single point].

Turning to `COc1ccc(C)cc1Nc1ncnc2c1c(-c1ccccc1)cn2-c1ccc(C)cc1`, the AC50 under setting [2] was 5.62 µM [falling, single point].

`CCN1CCC2(CC1)N=C(c1ccc(F)cc1)C(=S)N2C(=O)c1ccc(C(C)(C)C)cc1`: the AC50 is 12.6 µM [rising, single point] under setting [2] and 14.1 µM [rising, single point] under setting [1].

Regarding `Cc1cccc(N2C(=O)SC(SC(=Nc3ccccc3)Nc3ccccc3)C2=O)c1` (configuration not stated), the AC50 is, setting by setting: under setting [2], 12.6 µM [rising, single point]; under setting [1], 20 µM [rising, single point].

On to `Cc1ccccc1-c1ccc(C(=O)Nc2cccc(F)c2)o1`, for which the AC50 under setting [1] is 7.94 µM [rising, partial curve].

Consider `Cc1cc(C(=O)CSc2nnnn2-c2ccc(O)cc2)c(C)n1Cc1ccc2c(c1)OCO2`, for which the AC50 under setting [1] was 7.08 µM [rising, partial curve].

As to `CCC(C)N1C(=O)/C(=C/c2c(NCCCOC(C)C)nc3c(C)cccn3c2=O)SC1=S` (configuration not stated), the AC50 runs as follows: under setting [2], 6.31 µM [rising, partial curve, poor fit]; under setting [1], 10 µM [rising, single point].

Consider `O=c1[nH]c(=O)n([C@H]2C[C@H](O)[C@@H](CO)O2)cc1F`, for which, under setting [1], the AC50 was 4.47 nM [rising, full curve, poor fit] and 355 nM [rising, full curve].

`CN(C)C(=S)SCC(=O)Nc1ccc(Cl)cc1Cl`: the AC50 runs as follows: under setting [2], 35.5 µM [rising, single point]; under setting [1], 35.5 µM [rising, single point].

As for `CCOC(=O)c1c(NC(=S)Nc2cc([N+](=O)[O-])ccc2OC)sc2c1CCCCC2`, the AC50 under setting [1] was 35.5 µM [rising, partial curve, poor fit].

Consider `Cc1ccc(-n2nc3ccc(NC(=S)NC(=O)/C=C/c4ccco4)cc3n2)cc1`, for which the AC50 under setting [1] is 0.0501 µM [rising, full curve, poor fit].
